# Assay results

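Vaccinia-infected cells with a two-color viral stage reporter; Venus fluorescence read on a plate reader; the cell line is not named here; timing not stated here. The test concentration is not given here. Percent change in Venus reporter signal; lower (more negative) values mean stronger inhibition of that viral stage.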

Values are in %. The controls that fix the scale are not given here. Common to all entries: measured here: Venus reporter, other viral stage. Part of the compounds only, not a random draw; the main read-out is not listed here.

SMILES,activity change (Venus) (%)
C[C@@H]1CN([C@@H](C)CO)C(=O)Cc2cc(NC(=O)C3CCCCC3)ccc2O[C@H]1CN(C)CC1CCCCC1,-27.06
CC(C)NC(=O)Nc1ccc2c(c1)C(=O)N([C@H](C)CO)C[C@@H](C)[C@@H](CN(C)Cc1ccc(C(F)(F)F)cc1)OCCCC[C@@H](C)O2,-47.04
C[C@@H]1CN([C@@H](C)CO)C(=O)Cc2cc(NS(=O)(=O)c3ccccc3)ccc2O[C@H]1CN(C)Cc1ccc2c(c1)OCO2,-58.57
C[C@@H]1CN([C@@H](C)CO)S(=O)(=O)c2ccc(-c3ccccc3F)cc2O[C@H]1CN(C)Cc1ccncc1,-61.46
O=C(N[C@@H]1C[C@@H]2O[C@@H](CO)CC[C@@H]2O[C@@H]1CCc1ccc(-c2ccccc2)cc1)c1cnccn1,-36.32
C[C@H](CO)N1C[C@H](C)[C@H](CN(C)S(=O)(=O)c2ccc(Cl)cc2)Oc2ccc(NC(=O)Nc3ccc(F)cc3)cc2CC1=O,-40.92
CCNC[C@@H]1[C@H](c2ccc(-c3ccc(F)cc3)cc2)[C@H](CO)N1S(C)(=O)=O,-56.42
C[C@H](CO)N1C[C@H](C)[C@@H](CN(C)Cc2ccc(Cl)c(Cl)c2)OCCCC[C@H](C)Oc2ccc(NC(=O)Cc3ccccc3)cc2C1=O,-36.65
COc1ccc(NC(=O)N2CCCCN3[C@@H](CO)[C@H](c4ccc(-c5ccccc5F)cc4)[C@@H]3C2)cc1,-66.15
C[C@H]1CN([C@@H](C)CO)C(=O)c2cccc(NC(=O)Nc3ccc(C(F)(F)F)cc3)c2O[C@@H]1CN(C)S(=O)(=O)c1cccs1,-44.91
C[C@H](CO)N1C[C@H](C)[C@@H](CN(C)C(=O)CN(C)C)Oc2cc(C#Cc3ccccc3)ccc2S1(=O)=O,-45.42
COc1cccc(-c2ccc3c(c2)[C@@H]2[C@@H](CCN2C(=O)C2CCCC2)[C@@H](CO)N3)c1,-30.98
C[C@@H]1CCCCO[C@@H](CN(C)Cc2ccccc2)[C@@H](C)CN([C@@H](C)CO)C(=O)c2cc(NC(=O)Nc3ccc(C(F)(F)F)cc3)ccc2O1,-25.27
C[C@@H]1CN([C@@H](C)CO)C(=O)c2cc(C#C[C@@H](C)O)cnc2O[C@H]1CN(C)Cc1ccc(-c2ccccc2)cc1,-46.55
C[C@H](CO)N1C[C@H](C)[C@@H](CN(C)S(=O)(=O)c2cccs2)Oc2ccc(N(C)C)cc2C1=O,-49.67
CN(C)C(=O)c1ccc(-c2ccc([C@H]3[C@@H](C#N)N(C(=O)C4CCCCC4)[C@H]3CO)cc2)cc1,-31.28
C[C@H]1CN([C@@H](C)CO)S(=O)(=O)c2ccc(C#CCN(C)C)cc2O[C@@H]1CN(C)Cc1ccc(F)cc1,-45.55
C[C@H](CO)N1C[C@H](C)[C@@H](CN(C)Cc2ccccc2)Oc2cc(-c3ccncc3)ccc2S1(=O)=O,-43.43
C[C@H](CO)N1C[C@H](C)[C@@H](CN(C)C(=O)Nc2cccc(Cl)c2Cl)OCc2ccccc2-c2ccccc2C1=O,-20.26
C[C@@H]1CN([C@@H](C)CO)S(=O)(=O)c2ccc(C#Cc3ccncc3)cc2O[C@@H]1CN(C)S(=O)(=O)c1ccccc1,-46.62
C[C@@H]1CN([C@@H](C)CO)C(=O)c2cc(C#CC3CCCCC3)cnc2O[C@@H]1CN(C)C(=O)Nc1ccccc1,-33.23
Cc1ccc(-c2cnc3c(c2)C(=O)N([C@@H](C)CO)C[C@@H](C)[C@@H](CN(C)C(=O)c2cccc(F)c2)O3)cc1,-46.88
O=C(Cc1ccncc1)N1CCCCN2[C@H](CO)[C@H](c3ccc(C#Cc4ccccc4F)cc3)[C@H]2C1,-24.99
Cc1ccc(S(=O)(=O)N(C)C[C@@H]2OCCCC[C@H](C)Oc3ccc(NS(=O)(=O)c4ccccc4)cc3C(=O)N([C@H](C)CO)C[C@H]2C)cc1,-37.92
COc1ccc2c3c(n(C)c2c1)[C@@H](CO)N(C(=O)Cc1ccccc1)CC31CCN(C(=O)Cc2ccccc2)CC1,-31.35
C[C@@H]1CN([C@@H](C)CO)C(=O)Cc2cc(NC(=O)Nc3ccc(F)cc3)ccc2O[C@H]1CN(C)Cc1ccc(C(F)(F)F)cc1,-30.12
C[C@H]1CN([C@@H](C)CO)C(=O)c2c(c3ccccc3n2C)-c2ccccc2CO[C@@H]1CN(C)S(=O)(=O)c1ccc(Cl)cc1,-35.33
CNC[C@@H]1Oc2cc(C#Cc3cccc(OC)c3)ccc2S(=O)(=O)N([C@H](C)CO)C[C@H]1C,-49.92
COc1ccccc1C#Cc1ccc2c(c1)O[C@@H](CN(C)C)[C@H](C)CN([C@@H](C)CO)S2(=O)=O,-51
CO[C@H](CN(C)S(=O)(=O)c1ccc(Cl)cc1)[C@@H](C)CN([C@@H](C)CO)S(=O)(=O)c1cccc(Cl)c1,-33.16

The last 3 entries again:

SMILES	activity change (Venus) (%)
CNC[C@@H]1Oc2cc(C#Cc3cccc(OC)c3)ccc2S(=O)(=O)N([C@H](C)CO)C[C@H]1C	-49.92
COc1ccccc1C#Cc1ccc2c(c1)O[C@@H](CN(C)C)[C@H](C)CN([C@@H](C)CO)S2(=O)=O	-51
CO[C@H](CN(C)S(=O)(=O)c1ccc(Cl)cc1)[C@@H](C)CN([C@@H](C)CO)S(=O)(=O)c1cccc(Cl)c1	-33.16

Data taken from PubChem BioAssay AID1053133, deposited by Broad Institute (2014).